The assay has as its target Aryl hydrocarbon receptor (human (endogenous in HeyA8, OVCAR3, SKOV3ip1)) (UniProt P35869). The assay is described as follows: co-IP; lysates (500 ug per IP) of AR-overexpressed HeyA8, OVCAR3 and SKOV3ip1 cells in non-denaturing lysis buffer (20 mM Tris HCl pH 8, 137 mM NaCl, 1% NP-40, 2 mM EDTA); AhR immunoprecipitated with anti-AhR antibody at 4 °C overnight, protein A/G agarose; western blot with anti-AR and anti-AhR; rabbit IgG as control.

Sequences of proteins named here, by UniProt entry; tags and fusion partners are left off. Residues count along the entry.
UniProt P35869, residues 11-848: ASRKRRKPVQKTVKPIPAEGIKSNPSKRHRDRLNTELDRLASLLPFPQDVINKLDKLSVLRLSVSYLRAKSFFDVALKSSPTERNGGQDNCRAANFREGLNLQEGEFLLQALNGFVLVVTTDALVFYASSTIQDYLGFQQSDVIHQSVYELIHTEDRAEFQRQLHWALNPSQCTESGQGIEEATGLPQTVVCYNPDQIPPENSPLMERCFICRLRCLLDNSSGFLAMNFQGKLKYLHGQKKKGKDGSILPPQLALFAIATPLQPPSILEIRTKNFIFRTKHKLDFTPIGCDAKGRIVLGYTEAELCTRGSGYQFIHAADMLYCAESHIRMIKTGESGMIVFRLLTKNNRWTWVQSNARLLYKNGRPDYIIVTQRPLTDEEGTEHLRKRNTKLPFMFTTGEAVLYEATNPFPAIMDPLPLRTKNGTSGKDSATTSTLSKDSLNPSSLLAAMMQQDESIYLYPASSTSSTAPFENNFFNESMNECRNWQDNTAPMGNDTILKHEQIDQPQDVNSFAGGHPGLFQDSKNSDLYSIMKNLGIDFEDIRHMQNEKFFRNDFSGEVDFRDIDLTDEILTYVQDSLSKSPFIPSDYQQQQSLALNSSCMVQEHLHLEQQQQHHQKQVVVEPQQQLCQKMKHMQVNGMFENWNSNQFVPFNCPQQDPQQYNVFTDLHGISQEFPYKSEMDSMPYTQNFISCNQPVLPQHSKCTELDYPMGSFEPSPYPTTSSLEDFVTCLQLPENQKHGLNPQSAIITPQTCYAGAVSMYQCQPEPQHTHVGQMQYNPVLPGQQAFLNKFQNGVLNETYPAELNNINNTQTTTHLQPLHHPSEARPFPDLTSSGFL
UniProt P10275: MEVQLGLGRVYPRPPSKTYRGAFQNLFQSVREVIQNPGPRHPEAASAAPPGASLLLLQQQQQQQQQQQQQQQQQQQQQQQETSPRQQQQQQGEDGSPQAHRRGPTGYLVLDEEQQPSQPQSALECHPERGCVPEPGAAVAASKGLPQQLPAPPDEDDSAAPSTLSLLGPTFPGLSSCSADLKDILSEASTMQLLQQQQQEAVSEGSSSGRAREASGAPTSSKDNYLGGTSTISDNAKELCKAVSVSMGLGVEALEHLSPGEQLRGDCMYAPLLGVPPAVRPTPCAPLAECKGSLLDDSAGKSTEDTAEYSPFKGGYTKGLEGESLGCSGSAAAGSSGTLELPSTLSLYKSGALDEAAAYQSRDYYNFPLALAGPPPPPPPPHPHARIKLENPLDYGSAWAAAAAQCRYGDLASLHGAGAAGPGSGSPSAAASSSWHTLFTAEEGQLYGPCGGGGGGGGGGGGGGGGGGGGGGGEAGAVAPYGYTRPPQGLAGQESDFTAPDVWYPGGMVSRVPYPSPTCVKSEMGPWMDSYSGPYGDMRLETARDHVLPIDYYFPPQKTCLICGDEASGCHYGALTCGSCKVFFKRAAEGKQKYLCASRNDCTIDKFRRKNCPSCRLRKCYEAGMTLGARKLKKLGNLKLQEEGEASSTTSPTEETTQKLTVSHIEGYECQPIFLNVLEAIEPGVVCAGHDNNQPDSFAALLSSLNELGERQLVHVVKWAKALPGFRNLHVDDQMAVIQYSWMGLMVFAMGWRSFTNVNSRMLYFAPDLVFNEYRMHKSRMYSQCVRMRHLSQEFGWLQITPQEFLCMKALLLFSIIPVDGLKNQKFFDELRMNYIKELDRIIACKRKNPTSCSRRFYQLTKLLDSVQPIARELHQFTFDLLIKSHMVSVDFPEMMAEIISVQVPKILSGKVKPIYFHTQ

Results are given in words; binding and its absence hold for the method and conditions named. In cells and extracts the contact can be indirect. Some entries that bind do so weakly or less than the wild type.

On to “Androgen receptor (from UniProt P10275 1-920)”, for which the binding entry is given as “binds”.

For the origin of these results see publication PMC6521308.
